{"source": "patent US5059624A", "about": "“Guanidine derivatives having hypotensive activity, composition containing them and process for obtaining them” (Consiglio Nazionale Delle Ricerche, priority 1988, dated 1991)", "system": "male Wistar rats", "conditions": "i.v., rat", "note": "At least one compound was matched to its structure with a doubt left.", "data": [{"smiles": "CC(C)=CCN=C(N)N", "note": "[galegine, prenylguanidine, reference compound]", "values": [{"measurement": "cardiovascular and respiratory effects (in words)", "result": "systolic and diastolic arterial hypotension and bradycardla yet from the dose of 50 μg/kg with a constant increase of dp/dt, RF and TV"}]}]}
